Results deposited as PubChem BioAssay AID1259327 (Drosophila RNAi Screening Center, 2017).

Test: 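Baseline ATP after transmembrane-protein gene knock-down with water vehicle only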
Cell system: Drosophila S2R+ cells
Reagent: long dsRNA against Drosophila genes
Time to read-out: 5 days (water added on day 4, read one day later)
Treatment: water added as vehicle, no metal, one day before read-out
Read-out: 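Total ATP measured by luciferase light, scaled to plate mean, duplicates averaged, then z-scored across plates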
Scale: ATP z-score: higher = more total ATP than typical wells; ATP luminescence: higher = more total ATP
Hit rule: 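Called active when the ATP z-score exceeds 1.5 or falls below -1.5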
Meaning of the calls: active = hit: ATP up or down; inactive = no clear ATP change
Shown is an unselected part of about 3,100 reagents. Over the whole deposit, 378 (12%) are marked active. 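Hits include both directions; z-score sign shows ATP rise or fall; raw luminescence values are not plate-normalised.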 Entries without a mark were called inactive. The record does not give: the amount of reagent.

| gene knocked down | amplicon | ATP z-score, duplicate mean | ATP luminescence, replicate 1 (RLU) | ATP luminescence, replicate 2 (RLU) |
| --- | --- | --- | --- | --- |
| mthl14 | DRSC07865 | 0.319 | 7.46e5 | 8.10e5 |
| mthl14 | DRSC39645 | 0.485 | 4.79e5 | 5.19e5 |
| EloA | DRSC16109 | -0.552 | 7.14e5 | 5.86e5 |
| EloA | DRSC23920 | 2.79 (active) | 1.30e6 | 1.09e6 |
| spict | DRSC02157 | 0.222 | 4.84e5 | 5.06e5 |
| spict | DRSC39463 | -0.829 | 4.39e5 | 3.59e5 |
| Hmgcr | DRSC16704 | 2.29 (active) | 4.27e5 | 9.46e5 |
| Nrt | DRSC11237 | -0.395 | 6.76e5 | 7.02e5 |
| cue | DRSC08248 | 0.561 | 7.74e5 | 8.08e5 |
| cue | DRSC39507 | 0.0796 | 5.05e5 | 4.14e5 |
| CG31106 | DRSC14655 | 0.0182 | 3.15e5 | 7.25e5 |
| Ir94b | DRSC21439 | 0.408 | 6.08e5 | 6.21e5 |
| Lrch | DRSC02996 | -0.0714 | 4.42e5 | 5.08e5 |
| Lrch | DRSC29145 | -0.461 | 8.34e5 | 7.06e5 |
| alphaKap4 | DRSC09823 | 0.724 | 1.01e6 | 9.71e5 |
| alphaKap4 | DRSC39588 | 0.068 | 4.61e5 | 4.79e5 |
| drd | DRSC19343 | 0.309 | 6.18e5 | 7.53e5 |
| drd | DRSC26473 | -1.84 (active) | 8.44e5 | 1.22e6 |
| GluRIIC | DRSC00642 | 0.828 | 4.98e5 | 5.79e5 |
| LRP1 | DRSC07238 | -0.709 | 5.69e5 | 5.41e5 |
| CG34435 | DRSC18086 | -0.0959 | 6.10e5 | 7.37e5 |
| CG34435 | DRSC39470 | -0.627 | 3.97e5 | 4.25e5 |
| Ktl | DRSC14270 | 0.503 | 7.66e5 | 7.50e5 |
| CG32645 | DRSC19683 | 0.341 | 6.28e5 | 6.41e5 |
| CG32645 | DRSC19889 | 1.74 (active) | 8.49e5 | 7.36e5 |
| ninaD | DRSC02886 | 0.756 | 7.98e5 | 8.15e5 |
| ninaD | DRSC24484 | -0.105 | 8.07e5 | 8.68e5 |
| CG33639 | DRSC22820 | 1.33 | 7.53e5 | 6.31e5 |
| CG33639 | DRSC23778 | 0.373 | 9.43e5 | 8.50e5 |

Active calls, of those listed so far:
| gene knocked down | amplicon | ATP z-score, duplicate mean | ATP luminescence, replicate 1 (RLU) | ATP luminescence, replicate 2 (RLU) |
| --- | --- | --- | --- | --- |
| EloA | DRSC23920 | 2.79 (active) | 1.30e6 | 1.09e6 |
| Hmgcr | DRSC16704 | 2.29 (active) | 4.27e5 | 9.46e5 |
| drd | DRSC26473 | -1.84 (active) | 8.44e5 | 1.22e6 |
| CG32645 | DRSC19889 | 1.74 (active) | 8.49e5 | 7.36e5 |
